{
  "source": "the supplement of paper PMC12889115",
  "test_system": "Salmonella enterica serovar Typhimurium SL1344",
  "assay": "bacterial growth OD600 after 18 h with compound and polymyxin B; higher = more bacterial growth (less inhibition)",
  "details": "50 µM, Mueller-Hinton broth",
  "note": "Some of the results follow. Values are raw readings; no control value is given beside them.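 Primary screen: polymyxin B was added at a level permeabilizing Salmonella outer membranes while sparing inner membranes. DMSO wells, both with and without polymyxin B, established maximum growth. Plate-to-plate variation meant each plate was ranked on its own, and the lowest-OD600 compounds were selected as hits.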",
  "data": [
    {"smiles": "COc1ccccc1CCN1CCC(CN(C)C(=O)CCc2c(C)noc2C)CC1", "values": [
      {"measurement": "bacterial growth OD600", "setting": "polymyxin B 1 µg/mL", "result": 1.08}
    ]},
    {"smiles": "CCOC(=O)C1(Cc2ccccc2F)CCCN(C(=O)CCN2CCCCC2=O)C1", "note": "(stereo unspecified)", "values": [
      {"measurement": "bacterial growth OD600", "setting": "polymyxin B 1 µg/mL", "result": 0.876}
    ]},
    {"smiles": "O=C(NCC1Cc2cc(-c3ccsc3)cc(Cl)c2O1)[C@@H]1C[C@@H]2C=C[C@H]1C2", "note": "(stereo partly specified)", "values": [
      {"measurement": "bacterial growth OD600", "setting": "polymyxin B 0.75 µg/mL", "result": 0.209}
    ]},
    {"smiles": "CN(C)S(=O)(=O)NC1CC(=O)N(Cc2cccc3ccccc23)C1", "note": "(stereo unspecified)", "values": [
      {"measurement": "bacterial growth OD600", "setting": "polymyxin B 1 µg/mL", "result": 1.17}
    ]},
    {"smiles": "COc1cccc(-c2n[nH]c3c2CN(C(=O)C2=C(C)OCCO2)CC3)c1", "values": [
      {"measurement": "bacterial growth OD600", "setting": "polymyxin B 0.75 µg/mL", "result": 0.823}
    ]},
    {"smiles": "COc1cccc(-c2cc(CC3(O)CCN(Cc4cnn(C)c4)CC3)on2)c1", "values": [
      {"measurement": "bacterial growth OD600", "setting": "polymyxin B 0.75 µg/mL", "result": 0.822}
    ]},
    {"smiles": "CC1(C)[C@H]2CC=C(CCNC3CCN(c4ccc(C(=O)NCc5cccnc5)cc4)CC3)[C@@H]1C2", "values": [
      {"measurement": "bacterial growth OD600", "setting": "polymyxin B 0.75 µg/mL", "result": 0.7}
    ]},
    {"smiles": "CN(C)c1ncc2c(n1)CCCC2NC1CCCC1", "note": "(stereo unspecified)", "values": [
      {"measurement": "bacterial growth OD600", "setting": "polymyxin B 1 µg/mL", "result": 0.909}
    ]},
    {"smiles": "CCN(Cc1ccccc1)C(=O)CCc1nnc(CCc2ccc(OC)cc2)o1", "values": [
      {"measurement": "bacterial growth OD600", "setting": "polymyxin B 1 µg/mL", "result": 0.795}
    ]},
    {"smiles": "CCOC(=O)N1CCN(Cc2nc(-c3ccc(C(F)(F)F)cc3)oc2C)CC1", "values": [
      {"measurement": "bacterial growth OD600", "setting": "polymyxin B 1 µg/mL", "result": 0.445}
    ]},
    {"smiles": "COCCN(C(=O)CC1(c2ccccc2)CC(=O)N(CCCOc2cccnc2)C1=O)C(C)C", "note": "(stereo unspecified)", "values": [
      {"measurement": "bacterial growth OD600", "setting": "polymyxin B 0.75 µg/mL", "result": 0.825}
    ]},
    {"smiles": "COCC(=O)N1CCC(Oc2ccc(C(=O)N3CCC(Cc4ccccc4)CC3)cc2)CC1", "values": [
      {"measurement": "bacterial growth OD600", "setting": "polymyxin B 1 µg/mL", "result": 0.806}
    ]},
    {"smiles": "COC(C(=O)NCc1c(C)ncc2c1CCN(C(=O)CCn1nc(C)cc1C)C2)c1ccccc1", "note": "(stereo unspecified)", "values": [
      {"measurement": "bacterial growth OD600", "setting": "polymyxin B 0.75 µg/mL", "result": 0.729}
    ]},
    {"smiles": "CN(Cc1nccs1)c1ccc(-c2nc(Cc3ccc(F)cc3)no2)cn1", "values": [
      {"measurement": "bacterial growth OD600", "setting": "polymyxin B 0.75 µg/mL", "result": 0.364}
    ]},
    {"smiles": "Cc1ccccc1CN1CCCC(CO)(Cc2ccc(F)cc2)C1", "note": "(stereo unspecified)", "values": [
      {"measurement": "bacterial growth OD600", "setting": "polymyxin B 0.75 µg/mL", "result": 0.725}
    ]},
    {"smiles": "O=C1CCC(C(=O)N2CCCCCC2)CN1CCc1ccc(Cl)cc1", "note": "(stereo unspecified)", "values": [
      {"measurement": "bacterial growth OD600", "setting": "polymyxin B 1 µg/mL", "result": 0.999}
    ]},
    {"smiles": "CCNC(=O)N1CCC(C2CCN(Cc3cccc(F)c3F)CC2)C1", "note": "(stereo unspecified)", "values": [
      {"measurement": "bacterial growth OD600", "setting": "polymyxin B 0.75 µg/mL", "result": 0.891}
    ]},
    {"smiles": "Cc1oc(-c2cccc(NC(=O)CCc3cccnc3)c2)nc1CNC(=O)c1ccc2c(c1)OCCO2", "values": [
      {"measurement": "bacterial growth OD600", "setting": "polymyxin B 0.75 µg/mL", "result": 0.816}
    ]},
    {"smiles": "COc1ccc(CN2CCc3nnc(C(CC(C)C)NC(=O)c4cc(C)cc(C)c4)n3CC2)c(O)c1", "note": "(stereo unspecified)", "values": [
      {"measurement": "bacterial growth OD600", "setting": "polymyxin B 0.75 µg/mL", "result": 0.621}
    ]},
    {"smiles": "CC(=O)CCC(=O)N1CCCC(C(=O)Nc2ccc(-c3cccc(F)c3)cc2)C1", "note": "(stereo unspecified)", "values": [
      {"measurement": "bacterial growth OD600", "setting": "polymyxin B 1 µg/mL", "result": 0.935}
    ]},
    {"smiles": "Cc1ccccc1-n1ncc(C(C)NC(=O)CN2CCOc3ccccc3C2)c1C", "note": "(stereo unspecified)", "values": [
      {"measurement": "bacterial growth OD600", "setting": "polymyxin B 1 µg/mL", "result": 0.938}
    ]},
    {"smiles": "Cc1csc(CNc2nncc(-c3cc4ccccc4o3)n2)n1", "values": [
      {"measurement": "bacterial growth OD600", "setting": "polymyxin B 1 µg/mL", "result": 1.21}
    ]},
    {"smiles": "CCn1cc(CN2CCC(C(Cc3ccccc3)N(CCOC)Cc3cccnc3)CC2)c(C)n1", "note": "(stereo unspecified)", "values": [
      {"measurement": "bacterial growth OD600", "setting": "polymyxin B 0.75 µg/mL", "result": 0.833}
    ]},
    {"smiles": "CCN1CCCC1CN(CC1CCN(CCOC)CC1)C(=O)c1cnc(C)cn1", "note": "(stereo unspecified)", "values": [
      {"measurement": "bacterial growth OD600", "setting": "polymyxin B 0.75 µg/mL", "result": 0.784}
    ]},
    {"smiles": "COCCN(C)C(=O)C1CCN(c2nc(C)c3cc(C)ccc3n2)CC1", "values": [
      {"measurement": "bacterial growth OD600", "setting": "polymyxin B 0.75 µg/mL", "result": 0.816}
    ]},
    {"smiles": "COc1ccc(CCN2C(=O)O[C@@H]3CN(c4cnccn4)C[C@@H]32)cc1", "values": [
      {"measurement": "bacterial growth OD600", "setting": "polymyxin B 1 µg/mL", "result": 0.694}
    ]},
    {"smiles": "Cc1nc(N2CCCC2C(=O)NC2CCOC(C)(C)C2)nc2cc(S(C)(=O)=O)ccc12", "note": "(stereo unspecified)", "values": [
      {"measurement": "bacterial growth OD600", "setting": "polymyxin B 0.75 µg/mL", "result": 0.863}
    ]},
    {"smiles": "CN(Cc1ccno1)C(=O)CC(c1ccccc1)c1ccccc1F", "note": "(stereo unspecified)", "values": [
      {"measurement": "bacterial growth OD600", "setting": "polymyxin B 0.75 µg/mL", "result": 0.535}
    ]},
    {"smiles": "CCN(CC)C(=O)C1CCCN(Cc2nc(Cc3cccc(C(F)(F)F)c3)no2)C1", "note": "(stereo unspecified)", "values": [
      {"measurement": "bacterial growth OD600", "setting": "polymyxin B 1 µg/mL", "result": 0.74}
    ]},
    {"smiles": "O=C(NCCCn1nnc2ccccc21)c1cn(CC2CCCO2)nn1", "note": "(stereo unspecified)", "values": [
      {"measurement": "bacterial growth OD600", "setting": "polymyxin B 1 µg/mL", "result": 0.932}
    ]},
    {"smiles": "COc1cc(CC2(CCC(=O)N(C)Cc3nc(-c4ccccc4)no3)CCC(=O)N2)ccc1F", "note": "(stereo unspecified)", "values": [
      {"measurement": "bacterial growth OD600", "setting": "polymyxin B 0.75 µg/mL", "result": 0.801}
    ]}
  ]
}
